Measured values taken from paper PMC9223585, “Structural and Functional Insights into CP2c Transcription Factor Complexes” (International Journal of Molecular Sciences, 2022).
These are yes or no findings as the source states them, for the method shown. In cells and extracts the contact can be indirect. Some entries that bind do so weakly or less than the wild type. For some assays here: Sequences can lack the tags named with a protein.

Protein sequences, listed by entry. Tags and fused reporters are not part of them.
UniProt O75925: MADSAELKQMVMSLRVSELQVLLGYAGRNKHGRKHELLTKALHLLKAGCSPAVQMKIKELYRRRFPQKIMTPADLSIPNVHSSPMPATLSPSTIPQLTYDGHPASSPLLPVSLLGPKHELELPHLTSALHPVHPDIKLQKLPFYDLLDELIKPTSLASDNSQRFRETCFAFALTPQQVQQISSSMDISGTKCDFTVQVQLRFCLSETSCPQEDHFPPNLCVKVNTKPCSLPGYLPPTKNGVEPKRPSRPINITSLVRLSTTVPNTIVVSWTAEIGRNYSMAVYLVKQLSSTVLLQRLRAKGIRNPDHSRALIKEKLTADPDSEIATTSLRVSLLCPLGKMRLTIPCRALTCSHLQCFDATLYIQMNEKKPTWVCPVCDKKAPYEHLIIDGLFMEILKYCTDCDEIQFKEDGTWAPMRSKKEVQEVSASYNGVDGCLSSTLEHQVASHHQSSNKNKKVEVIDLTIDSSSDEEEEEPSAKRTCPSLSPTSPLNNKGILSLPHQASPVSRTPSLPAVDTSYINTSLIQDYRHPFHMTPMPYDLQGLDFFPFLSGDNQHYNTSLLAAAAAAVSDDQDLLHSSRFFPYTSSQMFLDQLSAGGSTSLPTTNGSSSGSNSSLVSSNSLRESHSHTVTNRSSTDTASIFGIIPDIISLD

T1: CP2c (TFCP2), endogenous human (human (endogenous in MDA-MB-231)) (UniProt Q12800)
T1 sequence: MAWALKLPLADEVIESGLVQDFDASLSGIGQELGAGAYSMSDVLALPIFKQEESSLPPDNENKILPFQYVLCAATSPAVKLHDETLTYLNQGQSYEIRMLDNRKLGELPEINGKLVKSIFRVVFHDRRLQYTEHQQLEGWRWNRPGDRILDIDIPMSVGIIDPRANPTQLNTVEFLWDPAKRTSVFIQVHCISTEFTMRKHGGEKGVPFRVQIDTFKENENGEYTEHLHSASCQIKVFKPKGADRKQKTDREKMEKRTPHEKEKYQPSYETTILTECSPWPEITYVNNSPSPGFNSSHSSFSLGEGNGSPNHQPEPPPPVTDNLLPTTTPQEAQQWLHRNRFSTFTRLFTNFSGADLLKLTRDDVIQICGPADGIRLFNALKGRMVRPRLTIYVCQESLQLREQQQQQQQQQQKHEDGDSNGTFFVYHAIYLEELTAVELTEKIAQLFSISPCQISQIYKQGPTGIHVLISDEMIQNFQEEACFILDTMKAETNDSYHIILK

T2: CP2b, endogenous human (human (endogenous in MDA-MB-231)) (UniProt Q9NZI7)
T2 sequence: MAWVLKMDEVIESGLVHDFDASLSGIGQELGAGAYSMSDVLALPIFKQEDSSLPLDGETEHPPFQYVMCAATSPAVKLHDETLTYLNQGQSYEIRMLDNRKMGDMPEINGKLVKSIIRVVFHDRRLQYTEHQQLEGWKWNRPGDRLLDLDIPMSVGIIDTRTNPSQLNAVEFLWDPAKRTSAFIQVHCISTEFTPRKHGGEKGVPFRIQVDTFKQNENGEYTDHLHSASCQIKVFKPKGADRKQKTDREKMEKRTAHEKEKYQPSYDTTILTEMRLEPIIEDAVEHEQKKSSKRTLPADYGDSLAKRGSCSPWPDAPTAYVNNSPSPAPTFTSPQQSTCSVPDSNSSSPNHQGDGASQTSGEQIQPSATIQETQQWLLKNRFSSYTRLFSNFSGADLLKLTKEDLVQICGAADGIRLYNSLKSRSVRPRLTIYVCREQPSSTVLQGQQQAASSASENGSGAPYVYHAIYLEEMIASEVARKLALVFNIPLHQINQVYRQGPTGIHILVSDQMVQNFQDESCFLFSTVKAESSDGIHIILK

T3: CP2c (Tfcp2), endogenous mouse (mouse (endogenous in MEL)) (UniProt Q9ERA0)
T3 sequence: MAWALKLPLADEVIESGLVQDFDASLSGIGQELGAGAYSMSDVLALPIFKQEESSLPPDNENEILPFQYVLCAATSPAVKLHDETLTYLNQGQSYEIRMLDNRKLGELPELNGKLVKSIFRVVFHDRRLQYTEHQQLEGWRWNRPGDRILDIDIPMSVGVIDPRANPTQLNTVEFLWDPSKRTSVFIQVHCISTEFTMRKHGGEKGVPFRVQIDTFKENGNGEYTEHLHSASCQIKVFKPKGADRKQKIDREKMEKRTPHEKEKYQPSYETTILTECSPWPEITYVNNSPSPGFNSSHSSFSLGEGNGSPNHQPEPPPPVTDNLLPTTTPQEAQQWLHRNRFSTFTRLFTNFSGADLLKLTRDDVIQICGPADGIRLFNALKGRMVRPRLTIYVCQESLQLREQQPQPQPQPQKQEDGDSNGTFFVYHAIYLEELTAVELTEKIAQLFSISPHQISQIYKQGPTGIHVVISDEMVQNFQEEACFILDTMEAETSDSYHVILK

T4: Flag-CP2c (UniProt Q9ERA0)
T4 sequence: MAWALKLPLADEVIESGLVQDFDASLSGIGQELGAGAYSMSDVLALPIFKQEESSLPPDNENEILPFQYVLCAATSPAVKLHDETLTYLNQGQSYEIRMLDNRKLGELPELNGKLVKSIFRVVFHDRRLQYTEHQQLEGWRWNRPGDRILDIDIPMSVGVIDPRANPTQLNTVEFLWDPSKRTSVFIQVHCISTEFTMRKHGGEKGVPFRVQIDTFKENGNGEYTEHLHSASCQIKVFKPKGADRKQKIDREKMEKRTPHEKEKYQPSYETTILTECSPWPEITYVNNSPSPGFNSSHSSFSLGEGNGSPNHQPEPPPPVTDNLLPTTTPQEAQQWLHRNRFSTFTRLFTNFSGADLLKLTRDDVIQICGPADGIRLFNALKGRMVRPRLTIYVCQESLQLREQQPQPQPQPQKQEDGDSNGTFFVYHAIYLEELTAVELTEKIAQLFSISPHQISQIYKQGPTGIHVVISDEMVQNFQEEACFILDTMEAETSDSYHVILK


Assays:
[1] = biological target: T1, CP2c (TFCP2), endogenous human (human (endogenous in MDA-MB-231)); test: cross-linking + pull-down; biotin-labelled double-stranded DNA probes (Hba-a2 promoter, Gata1 enhancer; wild type and mutants) cross-linked with nuclear lysate by 2 mM DSP 30 min at room temperature, pulled down on Streptavidin-Sepharose, Western blot with and without DTT; the complex is held by the DNA that CP2c binds
[2] = biological target: T1, CP2c (TFCP2), endogenous human (human (endogenous in MDA-MB-231)); test: cross-linking + co-IP; DSP XL-WB: cytosolic extracts of MDA-MB-231 cells, Benzonase, 2 mM DSP 30 min at room temperature, IP with CP2c, CP2b or PIAS1 antibodies, sequential Western blot with and without DTT
[3] = biological target: T2, CP2b, endogenous human (human (endogenous in MDA-MB-231)); test: cross-linking + co-IP; DSP XL-WB: nuclear extracts of MDA-MB-231 cells, Benzonase, 2 mM DSP 30 min at room temperature, IP with CP2c, CP2b or PIAS1 antibodies, sequential Western blot with and without DTT
[4] = biological target: T1, CP2c (TFCP2), endogenous human (human (endogenous in MDA-MB-231)); test: as above
[5] = biological target: PIAS1, endogenous human (human (endogenous in MDA-MB-231)) (UniProt O75925); test: as above
[6] = biological target: T3, CP2c (Tfcp2), endogenous mouse (mouse (endogenous in MEL)); test: cross-linking + co-IP; DSP XL-WB: cytosolic extracts of uninduced (d0) MEL cells only, Benzonase, 2 mM DSP 30 min at room temperature, IP, sequential Western blot
[7] = biological target: T3, CP2c (Tfcp2), endogenous mouse (mouse (endogenous in MEL)); test: cross-linking + co-IP; DSP XL-WB: cytosolic extracts of MEL cells, uninduced (d0) and HMBA-induced (d3), Benzonase, 2 mM DSP 30 min at room temperature, IP, sequential Western blot with and without DTT
Flag-CP2c = biological target: T4, Flag-CP2c; test: cross-linking + co-IP; DSP XL-WB: cytosolic extracts of 293T cells overexpressing Flag-CP2c, EGFP-CP2b and Flag-PIAS1, with or without CP2a; 2 mM DSP, IP, sequential Western blot

Molecule | binding [1] | binding [2] | binding [3] | binding [4] | binding [5] | binding [6] | binding [7] | binding (Flag-CP2c)
PIAS1, endogenous human (from UniProt O75925 1-651) | binds | binds | binds | binds |  |  |  | 
CP2b, endogenous human (protein, UniProt Q9NZI7-1 1-540) MAWVLKMDEVIESGLVHDFDASLSGIGQELGAGAYSMSDVLALPIFKQEDSSLPLDGETEHPPFQYVMCAATSPAVKLHDETLTYLNQGQSYEIRMLDNRKMGDMPEINGKLVKSIIRVVFHDRRLQYTEHQQLEGWKWNRPGDRLLDLDIPMSVGIIDTRTNPSQLNAVEFLWDPAKRTSAFIQVHCISTEFTPRKHGGEKGVPFRIQVDTFKQNENGEYTDHLHSASCQIKVFKPKGADRKQKTDREKMEKRTAHEKEKYQPSYDTTILTEMRLEPIIEDAVEHEQKKSSKRTLPADYGDSLAKRGSCSPWPDAPTAYVNNSPSPAPTFTSPQQSTCSVPDSNSSSPNHQGDGASQTSGEQIQPSATIQETQQWLLKNRFSSYTRLFSNFSGADLLKLTKEDLVQICGAADGIRLYNSLKSRSVRPRLTIYVCREQPSSTVLQGQQQAASSASENGSGAPYVYHAIYLEEMIASEVARKLALVFNIPLHQINQVYRQGPTGIHILVSDQMVQNFQDESCFLFSTVKAESSDGIHIILK | binds | binds |  | binds | binds |  |  | 
CP2a, endogenous mouse (protein, UniProt Q811S7-2 1-504) MAWVLSMDEVIESGLVHDFDSSLSGIGQELGAGAYSMSDVLALPIFKQEDSSLSLEDEAKHPPFQYVMCAATSPAVKLHDETLTYLNQGQSYEIRMLDNRKMGDMPELSGKLVKSIIRVVFHDRRLQYTEHQQLEGWKWNRPGDRLLDLDIPMSVGIIDTRTNPSQLNAVEFLWDPAKRTSAFIQVHCISTEFTPRKHGGEKGVPFRIQVDTFKQNENGEYTDHLHSASCQIKVFKPKGADRKQKNDREKMEKRTAHEKEKYQPSYDTTILTECSPWPDTPTAYVNNSPSPAPTFTSSQPSTCSVPDSNSSSPNHQGDGAAQASGEQIQPSATTQETQQWLLKNRFSSYTRLFSNFSGADLLKLTKEDLVQICGAADGIRLYNSLKSRSVRPRLTIYVCQEQPSSTALQGQPQAAGSGGESGGGTPSVYHAIYLEEMVASEVARKLASVFNIPFHQINQVYRQGPTGIHILVSDQMVQNFQDETCFLFSTVKAENNDGIHIILK |  |  |  |  |  | no binding (condition: uninduced (d0) MEL cells) | binds | 
CP2a, ectopically overexpressed (protein, UniProt Q811S7-2 1-504) MAWVLSMDEVIESGLVHDFDSSLSGIGQELGAGAYSMSDVLALPIFKQEDSSLSLEDEAKHPPFQYVMCAATSPAVKLHDETLTYLNQGQSYEIRMLDNRKMGDMPELSGKLVKSIIRVVFHDRRLQYTEHQQLEGWKWNRPGDRLLDLDIPMSVGIIDTRTNPSQLNAVEFLWDPAKRTSAFIQVHCISTEFTPRKHGGEKGVPFRIQVDTFKQNENGEYTDHLHSASCQIKVFKPKGADRKQKNDREKMEKRTAHEKEKYQPSYDTTILTECSPWPDTPTAYVNNSPSPAPTFTSSQPSTCSVPDSNSSSPNHQGDGAAQASGEQIQPSATTQETQQWLLKNRFSSYTRLFSNFSGADLLKLTKEDLVQICGAADGIRLYNSLKSRSVRPRLTIYVCQEQPSSTALQGQPQAAGSGGESGGGTPSVYHAIYLEEMVASEVARKLASVFNIPFHQINQVYRQGPTGIHILVSDQMVQNFQDETCFLFSTVKAENNDGIHIILK |  |  |  |  |  |  |  | binds
CP2c (TFCP2), endogenous human (natural protein, human (endogenous in MDA-MB-231), UniProt Q12800-1 1-502, looked up, transcription factor CP2c (TFCP2, LBP-1c), endogenous in the human breast cancer line MDA-MB-231; both are human cells; also called α-CP2; LSF; source: endogenous, MDA-MB-231 nuclear and cytosolic lysate) MAWALKLPLADEVIESGLVQDFDASLSGIGQELGAGAYSMSDVLALPIFKQEESSLPPDNENKILPFQYVLCAATSPAVKLHDETLTYLNQGQSYEIRMLDNRKLGELPEINGKLVKSIFRVVFHDRRLQYTEHQQLEGWRWNRPGDRILDIDIPMSVGIIDPRANPTQLNTVEFLWDPAKRTSVFIQVHCISTEFTMRKHGGEKGVPFRVQIDTFKENENGEYTEHLHSASCQIKVFKPKGADRKQKTDREKMEKRTPHEKEKYQPSYETTILTECSPWPEITYVNNSPSPGFNSSHSSFSLGEGNGSPNHQPEPPPPVTDNLLPTTTPQEAQQWLHRNRFSTFTRLFTNFSGADLLKLTRDDVIQICGPADGIRLFNALKGRMVRPRLTIYVCQESLQLREQQQQQQQQQQKHEDGDSNGTFFVYHAIYLEELTAVELTEKIAQLFSISPCQISQIYKQGPTGIHVLISDEMIQNFQEEACFILDTMKAETNDSYHIILK |  | binds | binds |  | binds |  |  | 
